# Source: the supplement of paper PMC8728848
# Some of the results follow.
# B1: CALR truncated at D342 (Homo sapiens) (protein)
# chain: EPAVYFKEQFLDGDGWTSRWIESKHKSDFGKFVLSSGKFYGDEEKDKGLQTSQDARFYALSASFEPFSNKGQTLVVQFTVKHEQNIDCGGGYVKLFPNSLDQTDMHGDSEYNIMFGPDICGPGTKKVHVIFNYKGKNVLINKDIRCKDDEFTHLYTLIVRPDNTYEVKIDNSQVESGSLEDDWDFLPPKKIKDPDASKPEDWDERAKIDDPTDSKPEDWDKPEHIPDPDAKKPEDWDEEMDGEWEPPVIQNPEYKGEWKPRQIDNPDYKGTWIHPEIDNPEYSPDPSIYAYDNFGVLGLDLWQVKSGTIFDNFLITNDEAYAEEFGNETWGVTKAAEKQMKD
# What was measured:
# Test in all cases: glycan array binding signal (z-score within array); higher = stronger binding
# Settings in all cases: glycan notation: IUPAC condensed, linker removed
# [1] = biological target: Fuc(a1-2)Gal(b1-4)GlcNAc(b1-3)Gal(b1-4)GlcNAc(b1-3)Gal(b1-4)GlcNAc
# Method in brief: (§1)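 Glycan array binding is given as a within-array Z-score, which can be read as non-binding when negative. The arrays, 3228 of them, came from the Consortium for Functional Glycomics database and were retained only where the protein sequence was available. Z-scores were averaged across arrays of the same protein sequence at different concentrations or buffers and across linkers.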
# [2] = biological target: Fuc(a1-2)Gal(b1-4)GlcNAc(b1-3)GalNAc
# Method in brief: as §1
# [3] = biological target: Fuc(a1-2)Gal(b1-4)GlcNAc(b1-3)[Fuc(a1-2)Gal(b1-4)GlcNAc(b1-6)]GalNAc
# Method in brief: as §1
# [4] = biological target: Fuc(a1-2)Gal(b1-4)GlcNAc(b1-6)GalNAc
# Method in brief: as §1
# [5] = biological target: Fuc(a1-2)Gal(b1-4)GlcNAc6S
# Method in brief: as §1
# [6] = biological target: Fuc(a1-2)Gal(b1-4)[Fuc(a1-3)]GlcNAc
# Method in brief: as §1
# [7] = biological target: Fuc(a1-2)Gal(b1-4)[Fuc(a1-3)]GlcNAc(b1-2)Man(a1-3)[Fuc(a1-2)Gal(b1-4)[Fuc(a1-3)]GlcNAc(b1-2)Man(a1-6)]Man(b1-4)GlcNAc(b1-4)GlcNAc
# Method in brief: as §1
# [8] = biological target: Fuc(a1-2)Gal(b1-4)[Fuc(a1-3)]GlcNAc(b1-2)Man(a1-6)[Fuc(a1-2)Gal(b1-4)[Fuc(a1-3)]GlcNAc(b1-2)Man(a1-3)]Man(b1-4)GlcNAc(b1-4)[Fuc(a1-6)]GlcNAc
# Method in brief: as §1
# [9] = biological target: Fuc(a1-2)Gal(b1-4)[Fuc(a1-3)]GlcNAc(b1-2)[Fuc(a1-2)Gal(b1-4)[Fuc(a1-3)]GlcNAc(b1-4)]Man(a1-3)[Fuc(a1-2)Gal(b1-4)[Fuc(a1-3)]GlcNAc(b1-2)Man(a1-6)]Man(b1-4)GlcNAc(b1-4)GlcNAc
# Method in brief: as §1
# [10] = biological target: Fuc(a1-2)Gal(b1-4)[Fuc(a1-3)]GlcNAc(b1-3)Gal(b1-4)[Fuc(a1-3)]GlcNAc
# Method in brief: as §1
# [11] = biological target: Fuc(a1-2)Gal(b1-4)[Fuc(a1-3)]GlcNAc(b1-3)Gal(b1-4)[Fuc(a1-3)]GlcNAc(b1-3)Gal(b1-4)[Fuc(a1-3)]GlcNAc
# Method in brief: as §1
# [12] = biological target: Fuc(a1-2)Gal(b1-4)[Fuc(a1-3)]GlcNAc(b1-3)GalNAc
# Method in brief: as §1
# [13] = biological target: Fuc(a1-2)Gal(b1-4)[Fuc(a1-3)]GlcNAc(b1-3)[Neu5Ac(a2-6)Gal(b1-4)GlcNAc(b1-6)]Gal(b1-4)Glc
# Method in brief: as §1
# [14] = biological target: Fuc(a1-2)Gal6S(b1-3)GlcNAc
# Method in brief: as §1
# [15] = biological target: Fuc(a1-2)Gal6S(b1-3)GlcNAc6S
# Method in brief: as §1
# Fuc(a1-2)Gal6S(b1-4)Glc = biological target: Fuc(a1-2)Gal6S(b1-4)Glc
# Method in brief: as §1
# [16] = biological target: Fuc(a1-2)Gal6S(b1-4)Glc6S
# Method in brief: as §1
# [17] = biological target: Fuc(a1-2)Gal6S(b1-4)GlcNAc
# Method in brief: as §1
# Fuc(a1-2)[Gal(a1-3)]Gal = biological target: Fuc(a1-2)[Gal(a1-3)]Gal
# Method in brief: as §1
# [18] = biological target: Fuc(a1-2)[Gal(a1-3)]Gal(b1-3)GalNAc
# Method in brief: as §1
# [19] = biological target: Fuc(a1-2)[Gal(a1-3)]Gal(b1-3)GlcNAc
# Method in brief: as §1
# [20] = biological target: Fuc(a1-2)[Gal(a1-3)]Gal(b1-3)GlcNAc(b1-2)Man(a1-3)[Fuc(a1-2)[Gal(a1-3)]Gal(b1-3)GlcNAc(b1-2)Man(a1-6)]Man(b1-4)GlcNAc(b1-4)GlcNAc
# Method in brief: as §1
# [21] = biological target: Fuc(a1-2)[Gal(a1-3)]Gal(b1-3)GlcNAc(b1-2)Man(a1-3)[Fuc(a1-2)[Gal(a1-3)]Gal(b1-3)GlcNAc(b1-2)Man(a1-6)]Man(b1-4)GlcNAc(b1-4)[Fuc(a1-6)]GlcNAc
# Method in brief: as §1
# [22] = biological target: Fuc(a1-2)[Gal(a1-3)]Gal(b1-3)GlcNAc(b1-3)GalNAc
# Method in brief: as §1
# [23] = biological target: Fuc(a1-2)[Gal(a1-3)]Gal(b1-4)Glc
# Method in brief: as §1
# [24] = biological target: Fuc(a1-2)[Gal(a1-3)]Gal(b1-4)GlcNAc
# Method in brief: as §1
# [25] = biological target: Fuc(a1-2)[Gal(a1-3)]Gal(b1-4)GlcNAc(b1-2)Man(a1-3)[Fuc(a1-2)[Gal(a1-3)]Gal(b1-4)GlcNAc(b1-2)Man(a1-6)]Man(b1-4)GlcNAc(b1-4)GlcNAc
# Method in brief: as §1
# [26] = biological target: Fuc(a1-2)[Gal(a1-3)]Gal(b1-4)GlcNAc(b1-2)Man(a1-3)[Fuc(a1-2)[Gal(a1-3)]Gal(b1-4)GlcNAc(b1-2)Man(a1-6)]Man(b1-4)GlcNAc(b1-4)[Fuc(a1-6)]GlcNAc
# Method in brief: as §1
# [27] = biological target: Fuc(a1-2)[Gal(a1-3)]Gal(b1-4)GlcNAc(b1-3)GalNAc
# Method in brief: as §1
# [28] = biological target: Fuc(a1-2)[Gal(a1-3)]Gal(b1-4)GlcNAc(b1-6)GalNAc
# Method in brief: as §1
# [29] = biological target: Fuc(a1-2)[Gal(a1-3)]Gal(b1-4)[Fuc(a1-3)]Glc
# Method in brief: as §1
# [30] = biological target: Fuc(a1-2)[Gal(a1-3)]Gal(b1-4)[Fuc(a1-3)]GlcNAc
# Method in brief: as §1
# [31] = biological target: Fuc(a1-2)[Gal(a1-3)]Gal(b1-4)[Fuc(a1-3)]GlcNAc(b1-3)GalNAc
# Method in brief: as §1
# [32] = biological target: Fuc(a1-2)[Gal(a1-4)]Gal(b1-4)GlcNAc
# Method in brief: as §1
# [33] = biological target: Fuc(a1-2)[GalNAc(a1-3)]Gal
# Method in brief: as §1
# [34] = biological target: Fuc(a1-2)[GalNAc(a1-3)]Gal(b1-3)GalNAc(a1-3)[Fuc(a1-2)]Gal(b1-4)GlcNAc
# Method in brief: as §1
# [35] = biological target: Fuc(a1-2)[GalNAc(a1-3)]Gal(b1-3)GlcNAc
# Method in brief: as §1
binder,measurement,setting,value
B1,glycan array binding signal (z-score),[1],2.11
same,glycan array binding signal (z-score),[2],0.339
same,glycan array binding signal (z-score),[3],2
same,glycan array binding signal (z-score),[4],0.971
same,glycan array binding signal (z-score),[5],-0.068
same,glycan array binding signal (z-score),[6],0.02
same,glycan array binding signal (z-score),[7],1.26
same,glycan array binding signal (z-score),[8],1.04
same,glycan array binding signal (z-score),[9],2.8
same,glycan array binding signal (z-score),[10],-0.688
same,glycan array binding signal (z-score),[11],-0.783
same,glycan array binding signal (z-score),[12],1.28
same,glycan array binding signal (z-score),[13],-0.693
same,glycan array binding signal (z-score),[14],1.03
same,glycan array binding signal (z-score),[15],0.958
same,glycan array binding signal (z-score),Fuc(a1-2)Gal6S(b1-4)Glc,-0.856
same,glycan array binding signal (z-score),[16],0.034
same,glycan array binding signal (z-score),[17],-2.21
same,glycan array binding signal (z-score),Fuc(a1-2)[Gal(a1-3)]Gal,1.78
same,glycan array binding signal (z-score),[18],0.091
same,glycan array binding signal (z-score),[19],0.52
same,glycan array binding signal (z-score),[20],0.715
same,glycan array binding signal (z-score),[21],1.85
same,glycan array binding signal (z-score),[22],-0.585
same,glycan array binding signal (z-score),[23],-0.897
same,glycan array binding signal (z-score),[24],-0.602
same,glycan array binding signal (z-score),[25],0.479
same,glycan array binding signal (z-score),[26],-0.488
same,glycan array binding signal (z-score),[27],-0.131
same,glycan array binding signal (z-score),[28],-0.397
same,glycan array binding signal (z-score),[29],1.12
same,glycan array binding signal (z-score),[30],-0.484
same,glycan array binding signal (z-score),[31],-0.083
same,glycan array binding signal (z-score),[32],-1.31
same,glycan array binding signal (z-score),[33],-1.15
same,glycan array binding signal (z-score),[34],-0.154
same,glycan array binding signal (z-score),[35],-0.084

# An excerpt of these results, with bars between the fields:
binder | measurement | setting | value
B1 | glycan array binding signal (z-score) | [4] | 0.971
same | glycan array binding signal (z-score) | [5] | -0.068
same | glycan array binding signal (z-score) | [8] | 1.04
same | glycan array binding signal (z-score) | [11] | -0.783
same | glycan array binding signal (z-score) | [12] | 1.28
same | glycan array binding signal (z-score) | Fuc(a1-2)[Gal(a1-3)]Gal | 1.78
same | glycan array binding signal (z-score) | [19] | 0.52
same | glycan array binding signal (z-score) | [21] | 1.85
same | glycan array binding signal (z-score) | [30] | -0.484
same | glycan array binding signal (z-score) | [32] | -1.31
same | glycan array binding signal (z-score) | [34] | -0.154
